Source: the supplement of paper PMC10849652
The list shows a part of the results.

Protein sequences, listed by entry. Tags and fused reporters are not part of them. Lines headed by an entry give the natural chain unless they say otherwise; changes in a name come on top.
UniProt Q96AE4: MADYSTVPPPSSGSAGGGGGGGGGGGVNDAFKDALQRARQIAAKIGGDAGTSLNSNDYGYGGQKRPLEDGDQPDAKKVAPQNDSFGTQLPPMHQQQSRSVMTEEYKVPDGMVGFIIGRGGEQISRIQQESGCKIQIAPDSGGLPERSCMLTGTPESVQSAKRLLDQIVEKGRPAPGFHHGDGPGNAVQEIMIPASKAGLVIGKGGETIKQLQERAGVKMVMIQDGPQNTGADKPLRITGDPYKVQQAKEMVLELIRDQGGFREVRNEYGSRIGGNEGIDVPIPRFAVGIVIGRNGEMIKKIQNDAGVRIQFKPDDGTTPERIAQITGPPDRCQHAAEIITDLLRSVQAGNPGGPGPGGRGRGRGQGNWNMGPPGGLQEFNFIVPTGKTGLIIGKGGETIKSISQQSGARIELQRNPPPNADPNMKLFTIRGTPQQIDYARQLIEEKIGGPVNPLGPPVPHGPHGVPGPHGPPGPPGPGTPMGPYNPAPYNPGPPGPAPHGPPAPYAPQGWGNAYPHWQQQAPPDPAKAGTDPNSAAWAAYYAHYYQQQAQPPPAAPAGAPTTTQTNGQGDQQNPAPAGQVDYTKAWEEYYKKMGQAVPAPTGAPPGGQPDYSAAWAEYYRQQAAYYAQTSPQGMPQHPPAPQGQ
UniProt P35637: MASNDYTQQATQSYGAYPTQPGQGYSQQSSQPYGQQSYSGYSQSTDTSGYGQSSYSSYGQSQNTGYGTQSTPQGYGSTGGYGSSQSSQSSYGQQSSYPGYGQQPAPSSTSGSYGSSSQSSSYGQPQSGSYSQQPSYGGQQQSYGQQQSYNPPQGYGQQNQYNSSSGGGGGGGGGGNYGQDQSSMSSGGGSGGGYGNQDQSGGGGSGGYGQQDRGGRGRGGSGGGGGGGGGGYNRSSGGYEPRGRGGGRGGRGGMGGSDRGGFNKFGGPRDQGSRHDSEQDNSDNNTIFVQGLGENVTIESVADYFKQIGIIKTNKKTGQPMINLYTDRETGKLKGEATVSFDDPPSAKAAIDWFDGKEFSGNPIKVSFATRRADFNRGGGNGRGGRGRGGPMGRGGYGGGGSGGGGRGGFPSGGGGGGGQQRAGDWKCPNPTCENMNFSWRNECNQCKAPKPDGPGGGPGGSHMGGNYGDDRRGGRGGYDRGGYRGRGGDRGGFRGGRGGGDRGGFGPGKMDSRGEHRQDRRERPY
UniProt Q9H2C0: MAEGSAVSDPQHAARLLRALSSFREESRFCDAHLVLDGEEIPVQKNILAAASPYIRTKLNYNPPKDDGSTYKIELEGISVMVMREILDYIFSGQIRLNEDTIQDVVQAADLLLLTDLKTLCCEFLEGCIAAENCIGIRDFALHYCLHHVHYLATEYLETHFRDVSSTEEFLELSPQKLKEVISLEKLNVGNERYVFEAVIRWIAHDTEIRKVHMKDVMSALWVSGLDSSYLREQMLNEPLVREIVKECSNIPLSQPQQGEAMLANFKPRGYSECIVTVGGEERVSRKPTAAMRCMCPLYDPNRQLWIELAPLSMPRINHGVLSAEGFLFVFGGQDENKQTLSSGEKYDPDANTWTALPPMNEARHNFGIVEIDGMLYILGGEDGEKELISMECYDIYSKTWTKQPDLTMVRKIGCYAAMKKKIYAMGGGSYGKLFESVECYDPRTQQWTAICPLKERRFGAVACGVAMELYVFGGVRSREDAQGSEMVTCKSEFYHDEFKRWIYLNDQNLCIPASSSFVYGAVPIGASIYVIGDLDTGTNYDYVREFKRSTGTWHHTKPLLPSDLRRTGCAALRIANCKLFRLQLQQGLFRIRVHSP
UniProt Q06210: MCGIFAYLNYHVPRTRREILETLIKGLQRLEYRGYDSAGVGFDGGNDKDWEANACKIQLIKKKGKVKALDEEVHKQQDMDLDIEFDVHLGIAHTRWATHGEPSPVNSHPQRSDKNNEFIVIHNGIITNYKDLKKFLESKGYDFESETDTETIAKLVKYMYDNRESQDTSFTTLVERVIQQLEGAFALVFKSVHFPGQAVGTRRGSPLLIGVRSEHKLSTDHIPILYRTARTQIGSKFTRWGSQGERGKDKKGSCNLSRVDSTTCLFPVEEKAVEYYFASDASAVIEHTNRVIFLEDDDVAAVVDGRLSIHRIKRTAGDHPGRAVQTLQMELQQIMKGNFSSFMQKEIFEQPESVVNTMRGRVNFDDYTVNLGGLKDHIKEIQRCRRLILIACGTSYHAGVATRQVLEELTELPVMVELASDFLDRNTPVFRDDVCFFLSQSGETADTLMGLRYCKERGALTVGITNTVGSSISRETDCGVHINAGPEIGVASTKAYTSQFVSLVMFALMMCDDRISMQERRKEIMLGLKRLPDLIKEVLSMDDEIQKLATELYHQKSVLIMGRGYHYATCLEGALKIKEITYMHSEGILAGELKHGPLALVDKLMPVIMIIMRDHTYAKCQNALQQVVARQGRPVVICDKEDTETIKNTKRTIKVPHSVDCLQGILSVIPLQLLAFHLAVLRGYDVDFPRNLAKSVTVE
UniProt Q6NT46: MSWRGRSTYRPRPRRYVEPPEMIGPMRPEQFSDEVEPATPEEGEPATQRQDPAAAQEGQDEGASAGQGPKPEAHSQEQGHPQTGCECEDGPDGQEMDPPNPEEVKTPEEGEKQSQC
UniProt O14772: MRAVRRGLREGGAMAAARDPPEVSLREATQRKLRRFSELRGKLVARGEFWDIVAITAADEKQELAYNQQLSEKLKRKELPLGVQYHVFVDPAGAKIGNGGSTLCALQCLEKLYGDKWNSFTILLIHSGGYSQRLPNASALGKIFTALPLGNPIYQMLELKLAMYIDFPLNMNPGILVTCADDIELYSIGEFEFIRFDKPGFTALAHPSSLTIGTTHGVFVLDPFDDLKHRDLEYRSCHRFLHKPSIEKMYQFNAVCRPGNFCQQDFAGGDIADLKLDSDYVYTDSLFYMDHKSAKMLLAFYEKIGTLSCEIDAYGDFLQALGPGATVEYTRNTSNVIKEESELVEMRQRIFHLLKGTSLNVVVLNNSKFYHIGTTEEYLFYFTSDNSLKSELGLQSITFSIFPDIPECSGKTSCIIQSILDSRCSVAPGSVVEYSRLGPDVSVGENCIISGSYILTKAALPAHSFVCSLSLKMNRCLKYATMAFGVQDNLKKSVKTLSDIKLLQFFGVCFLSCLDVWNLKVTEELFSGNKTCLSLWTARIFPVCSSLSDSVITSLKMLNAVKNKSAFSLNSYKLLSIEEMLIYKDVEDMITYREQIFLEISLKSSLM
UniProt Q9UJY5: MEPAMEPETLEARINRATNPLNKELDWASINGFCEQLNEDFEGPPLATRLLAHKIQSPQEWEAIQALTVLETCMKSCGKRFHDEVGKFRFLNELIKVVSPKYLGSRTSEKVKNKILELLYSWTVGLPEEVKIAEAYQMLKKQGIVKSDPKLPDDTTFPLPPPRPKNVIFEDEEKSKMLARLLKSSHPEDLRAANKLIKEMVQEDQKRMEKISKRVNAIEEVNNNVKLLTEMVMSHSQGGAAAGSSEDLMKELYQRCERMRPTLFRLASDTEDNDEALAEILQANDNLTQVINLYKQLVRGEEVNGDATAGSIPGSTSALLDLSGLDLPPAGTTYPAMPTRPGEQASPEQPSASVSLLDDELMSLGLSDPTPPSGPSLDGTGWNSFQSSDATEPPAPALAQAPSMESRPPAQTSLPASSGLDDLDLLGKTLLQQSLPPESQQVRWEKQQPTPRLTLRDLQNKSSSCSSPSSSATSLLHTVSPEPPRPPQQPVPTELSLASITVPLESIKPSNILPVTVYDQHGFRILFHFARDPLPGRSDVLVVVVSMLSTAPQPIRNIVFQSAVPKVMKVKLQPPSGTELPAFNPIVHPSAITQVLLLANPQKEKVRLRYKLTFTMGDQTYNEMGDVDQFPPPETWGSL
UniProt O75600: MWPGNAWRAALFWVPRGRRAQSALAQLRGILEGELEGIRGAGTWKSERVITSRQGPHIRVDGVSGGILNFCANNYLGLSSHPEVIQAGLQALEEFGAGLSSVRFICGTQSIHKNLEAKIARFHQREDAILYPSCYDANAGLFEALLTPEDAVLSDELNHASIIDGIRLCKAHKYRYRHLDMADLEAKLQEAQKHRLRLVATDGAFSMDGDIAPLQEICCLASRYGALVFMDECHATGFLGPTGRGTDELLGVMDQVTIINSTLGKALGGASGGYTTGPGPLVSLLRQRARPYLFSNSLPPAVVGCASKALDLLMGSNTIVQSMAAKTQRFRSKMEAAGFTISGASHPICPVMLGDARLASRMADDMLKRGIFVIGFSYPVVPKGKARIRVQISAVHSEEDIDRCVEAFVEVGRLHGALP
UniProt P04406: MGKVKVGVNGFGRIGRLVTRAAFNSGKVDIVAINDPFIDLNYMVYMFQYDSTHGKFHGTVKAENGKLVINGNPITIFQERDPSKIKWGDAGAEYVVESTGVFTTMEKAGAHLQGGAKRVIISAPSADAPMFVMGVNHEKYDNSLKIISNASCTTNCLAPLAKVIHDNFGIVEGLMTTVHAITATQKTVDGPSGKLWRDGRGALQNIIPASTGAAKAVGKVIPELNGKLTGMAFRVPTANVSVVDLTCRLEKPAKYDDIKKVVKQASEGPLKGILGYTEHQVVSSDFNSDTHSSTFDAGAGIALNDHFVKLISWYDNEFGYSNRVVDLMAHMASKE
UniProt Q9BQS8: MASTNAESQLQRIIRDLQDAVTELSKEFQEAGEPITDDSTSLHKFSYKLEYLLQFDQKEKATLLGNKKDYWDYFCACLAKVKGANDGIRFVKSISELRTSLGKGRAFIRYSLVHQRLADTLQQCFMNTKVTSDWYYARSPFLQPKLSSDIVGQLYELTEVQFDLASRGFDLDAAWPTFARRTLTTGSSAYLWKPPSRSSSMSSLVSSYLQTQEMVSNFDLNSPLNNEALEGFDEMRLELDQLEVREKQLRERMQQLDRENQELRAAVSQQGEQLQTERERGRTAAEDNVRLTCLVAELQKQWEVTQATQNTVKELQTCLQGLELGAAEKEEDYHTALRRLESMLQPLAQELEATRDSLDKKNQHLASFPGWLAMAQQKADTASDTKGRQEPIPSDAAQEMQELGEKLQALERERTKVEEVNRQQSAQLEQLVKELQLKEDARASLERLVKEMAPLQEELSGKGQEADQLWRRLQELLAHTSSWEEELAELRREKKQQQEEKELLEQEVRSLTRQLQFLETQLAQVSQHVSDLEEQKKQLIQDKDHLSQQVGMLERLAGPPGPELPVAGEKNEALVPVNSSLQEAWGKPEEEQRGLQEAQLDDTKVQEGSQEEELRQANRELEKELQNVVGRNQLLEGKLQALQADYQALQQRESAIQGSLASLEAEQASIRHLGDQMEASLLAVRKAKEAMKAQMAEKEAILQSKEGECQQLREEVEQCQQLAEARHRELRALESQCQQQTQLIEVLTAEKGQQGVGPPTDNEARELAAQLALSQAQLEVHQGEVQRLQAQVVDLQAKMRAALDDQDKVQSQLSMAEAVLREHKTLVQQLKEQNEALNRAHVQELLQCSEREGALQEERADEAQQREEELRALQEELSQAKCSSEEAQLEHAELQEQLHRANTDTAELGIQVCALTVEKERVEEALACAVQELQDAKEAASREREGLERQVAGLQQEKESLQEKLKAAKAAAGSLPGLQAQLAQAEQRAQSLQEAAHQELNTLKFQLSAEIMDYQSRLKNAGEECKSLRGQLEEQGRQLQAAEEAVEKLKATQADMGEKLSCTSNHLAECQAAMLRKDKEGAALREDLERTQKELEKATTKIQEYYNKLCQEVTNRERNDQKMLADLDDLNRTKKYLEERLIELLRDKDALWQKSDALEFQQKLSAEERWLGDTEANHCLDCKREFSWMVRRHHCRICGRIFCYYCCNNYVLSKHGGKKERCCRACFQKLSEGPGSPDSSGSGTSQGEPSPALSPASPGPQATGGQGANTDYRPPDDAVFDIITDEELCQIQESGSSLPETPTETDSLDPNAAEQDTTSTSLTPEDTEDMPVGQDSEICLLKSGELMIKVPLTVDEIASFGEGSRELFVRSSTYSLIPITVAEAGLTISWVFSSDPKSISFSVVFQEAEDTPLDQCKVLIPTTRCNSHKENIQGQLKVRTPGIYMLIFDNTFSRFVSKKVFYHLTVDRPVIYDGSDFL
UniProt O75223: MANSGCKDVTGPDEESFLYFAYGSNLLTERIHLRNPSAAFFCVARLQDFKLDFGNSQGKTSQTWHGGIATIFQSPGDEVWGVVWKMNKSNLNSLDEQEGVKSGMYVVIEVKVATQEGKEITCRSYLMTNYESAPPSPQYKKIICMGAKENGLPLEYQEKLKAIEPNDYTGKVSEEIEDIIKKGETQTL
UniProt P02794, whole entry, looked up: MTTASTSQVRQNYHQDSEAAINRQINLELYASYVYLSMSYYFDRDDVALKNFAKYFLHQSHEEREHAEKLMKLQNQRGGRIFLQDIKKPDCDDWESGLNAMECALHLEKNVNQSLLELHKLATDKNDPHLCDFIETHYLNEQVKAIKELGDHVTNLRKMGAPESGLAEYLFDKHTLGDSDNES

Columns and labels:
Test in all cases: log2 fold change, soluble protein after heating vs DMSO (PISA); higher = thermal stabilisation; K562 cells, 10 uM, 30 min; active = over 0.2 and 3.5 SD of the protein, either way, in both replicates (recomputed)
saracatinib = compound: CN1CCN(CCOc2cc(OC3CCOCC3)c3c(Nc4c(Cl)ccc5c4OCO5)ncnc3c2)CC1 [saracatinib]
How it was run: (§1)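 Aliquots of K562 cells (2×10^6 cells/mL) treated with 10 μM compound for 30 min were heated for 3 min over 48°C-58°C. After pooling and extraction in PBS with 0.5% NP-40 at 4°C, soluble protein from a 21,000xg, 90 min spin was quantified by TMTpro 16plex LC-MS/MS with channel sums equalised. Thermal stability is expressed against control samples, from duplicates, as a log2 fold change.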

sotrastaurin = compound: CN1CCN(c2nc(C3=C(c4c[nH]c5ccccc45)C(=O)NC3=O)c3ccccc3n2)CC1 [sotrastaurin]
How it was run: as §1

alvocidib = compound: CN1CC[C@H](c2c(O)cc(O)c3c(=O)cc(-c4ccccc4Cl)oc23)[C@H](O)C1 [alvocidib]
How it was run: as §1

Tubastatin A = compound: CN1CCc2c(c3ccccc3n2Cc2ccc(C(=O)NO)cc2)C1 [Tubastatin A]
How it was run: as §1

[1] = compound: CNC(=O)C1=CC=CC=C1NC2=NC(=NC=C2Cl)NC3=C(C=C(C=C3)N4CCOCC4)OC
How it was run: as §1

defactinib = compound: CNC(=O)c1ccc(Nc2ncc(C(F)(F)F)c(NCc3nccnc3N(C)S(C)(=O)=O)n2)cc1 [defactinib]
How it was run: as §1

rucaparib = compound: CNCc1ccc(-c2[nH]c3cc(F)cc4c3c2CCNC4=O)cc1 [rucaparib]
How it was run: as §1

[2] = compound: CNc1nc(-c2ccc3c(N)n[nH]c3c2)cc(N2C[C@@H](C(=O)NC3CCCCC3)CC[C@H]2C)n1
How it was run: as §1

encorafenib = compound: COC(=O)N[C@@H](C)CNc1nccc(-c2cn(C(C)C)nc2-c2cc(Cl)cc(NS(C)(=O)=O)c2F)n1 [encorafenib]
How it was run: as §1

[3] = compound: COC(=O)[C@H](CCSC)NC(=O)C1=C(C=C(C=C1)NC[C@H](CS)N)C2=CC=CC=C2
How it was run: as §1

Measured: log2 fold change

FUBP1 (UniProt Q96AE4)
inactive: saracatinib 0.073 | sotrastaurin -0.005 | alvocidib 0.083 | Tubastatin A 0.095 | [1] 0.016 | defactinib -0.011 | rucaparib 0.046 | [2] -0.143 | encorafenib 0.08 | [3] -0.096

FRRS1 (UniProt Q6ZNA5)
inactive: saracatinib 0.006 | sotrastaurin 0.034 | alvocidib 0 | Tubastatin A 0.031 | [1] -0.011 | defactinib -0.022 | rucaparib -0.074 | [2] -0.089 | encorafenib 0.038 | [3] -0.046

FURIN (UniProt P09958)
inactive: saracatinib 0.031 | sotrastaurin -0.093 | alvocidib 0.006 | Tubastatin A -0.008 | [1] 0.037 | defactinib -0.052 | rucaparib -0.104 | [2] -0.076 | encorafenib 0 | [3] -0.044

GCLC (UniProt P48506)
inactive: saracatinib 0.008 | sotrastaurin 0.019 | alvocidib -0.025 | Tubastatin A -0.014 | [1] -0.044 | defactinib -0.042 | rucaparib -0.037 | [2] -0.014 | encorafenib 0.018 | [3] -0.014

FUS (UniProt P35637)
inactive: saracatinib 0.052 | sotrastaurin 0.028 | alvocidib 0.188 | Tubastatin A -0.038 | [1] 0.007 | defactinib 0.174 | rucaparib 0.141 | [2] -0.06 | encorafenib 0.002 | [3] 0.069

G3BP2 (UniProt Q9UN86)
inactive: saracatinib -0.07 | sotrastaurin 0.021 | alvocidib 0.227 | Tubastatin A 0.082 | [1] 0.129 | defactinib 0.237 | rucaparib 0.278 | [2] 0.018 | encorafenib 0.075 | [3] 0.063

GALNT5 (UniProt Q7Z7M9)
inactive: saracatinib -0.002 | sotrastaurin 0.005 | alvocidib -0.055 | Tubastatin A -0.001 | [1] 0.037 | defactinib -0.036 | rucaparib 0.041 | [2] -0.051 | encorafenib -0.006 | [3] 0.008

2 consecutive records out of the list so far, for reference:
FURIN (UniProt P09958)
inactive: saracatinib 0.031 | sotrastaurin -0.093 | alvocidib 0.006 | Tubastatin A -0.008 | [1] 0.037 | defactinib -0.052 | rucaparib -0.104 | [2] -0.076 | encorafenib 0 | [3] -0.044

GCLC (UniProt P48506)
inactive: saracatinib 0.008 | sotrastaurin 0.019 | alvocidib -0.025 | Tubastatin A -0.014 | [1] -0.044 | defactinib -0.042 | rucaparib -0.037 | [2] -0.014 | encorafenib 0.018 | [3] -0.014

(continued)

GEMIN4 (UniProt P57678)
inactive: saracatinib -0.192 | sotrastaurin -0.284 | alvocidib 0.416 | Tubastatin A 0.233 | [1] -0.235 | defactinib 0.318 | rucaparib 0.406 | [2] 0.142 | encorafenib 0.251 | [3] -0.248

GAN (UniProt Q9H2C0)
inactive: saracatinib 0.121 | sotrastaurin 0.022 | alvocidib -0.061 | Tubastatin A -0.05 | [1] 0.008 | defactinib -0.022 | rucaparib -0.113 | [2] 0.022 | encorafenib -0.054 | [3] 0.055

GFPT1 (UniProt Q06210)
inactive: saracatinib 0.05 | sotrastaurin 0.004 | alvocidib -0.105 | Tubastatin A -0.007 | [1] -0.009 | defactinib -0.062 | rucaparib -0.034 | [2] 0.006 | encorafenib 0.012 | [3] -0.003

GAGE2A (UniProt Q6NT46)
inactive: saracatinib -0.044 | sotrastaurin 0.033 | alvocidib -0.002 | Tubastatin A 0.013 | [1] 0.019 | defactinib -0.035 | rucaparib -0.034 | [2] -0.068 | encorafenib -0.049 | [3] 0.105

FPGT (UniProt O14772)
inactive: saracatinib 0.071 | sotrastaurin 0.024 | alvocidib -0.019 | Tubastatin A -0.014 | [1] -0.005 | defactinib 0.011 | rucaparib -0.052 | [2] -0.025 | encorafenib -0.031 | [3] 0.021

GGA1 isoform 6 (UniProt Q9UJY5)
inactive: saracatinib 0.031 | sotrastaurin -0.021 | alvocidib -0.104 | Tubastatin A -0.02 | [1] 0.007 | defactinib -0.081 | rucaparib -0.01 | [2] 0.018 | encorafenib -0.033 | [3] -0.02

GDAP1 (UniProt Q8TB36)
inactive: saracatinib 0.003 | sotrastaurin 0.013 | alvocidib -0.13 | Tubastatin A -0.03 | [1] -0.013 | defactinib 0.037 | rucaparib -0.131 | [2] 0.036 | encorafenib 0 | [3] 0.007

GCAT isoform 2 (UniProt O75600)
inactive: saracatinib 0.017 | sotrastaurin -0.005 | alvocidib -0.208 | Tubastatin A 0.064 | [1] 0.12 | defactinib -0.058 | rucaparib -0.02 | [2] -0.022 | encorafenib -0.007 | [3] -0.063

GALT (UniProt P07902)
inactive: saracatinib 0.018 | sotrastaurin -0.139 | alvocidib -0.159 | Tubastatin A -0.048 | [1] -0.029 | defactinib -0.109 | rucaparib 0.035 | [2] 0.015 | encorafenib -0.263 | [3] 0.002

GART (UniProt P22102)
inactive: saracatinib -0.037 | sotrastaurin 0 | alvocidib -0.063 | Tubastatin A 0.041 | [1] 0.053 | defactinib -0.03 | rucaparib -0.029 | [2] 0.08 | encorafenib 0.045 | [3] -0.061

FSCN1 (UniProt Q16658)
inactive: saracatinib 0.016 | sotrastaurin -0.014 | alvocidib -0.055 | Tubastatin A -0.044 | [1] 0.087 | defactinib -0.058 | rucaparib -0.015 | [2] -0.008 | encorafenib 0 | [3] -0.013

GAPDH (UniProt P04406)
inactive: saracatinib 0.066 | sotrastaurin 0.019 | alvocidib -0.072 | Tubastatin A -0.019 | [1] -0.014 | defactinib -0.004 | rucaparib 0.014 | [2] -0.005 | encorafenib -0.012 | [3] 0.015

FOXRED1 (UniProt Q96CU9)
inactive: saracatinib 0.021 | sotrastaurin 0.017 | alvocidib -0.048 | Tubastatin A -0.107 | [1] -0.013 | defactinib -0.005 | rucaparib -0.044 | [2] 0.045 | encorafenib 0.032 | [3] -0.001

GC isoform 3 (UniProt P02774)
inactive: saracatinib 0.594 | sotrastaurin 0.092 | alvocidib -0.094 | Tubastatin A -0.102 | [1] 0.209 | defactinib -0.22 | rucaparib -0.119 | [2] 0.326 | encorafenib -0.074 | [3] 0.128

GCN1 (UniProt Q92616)
inactive: saracatinib -0.225 | sotrastaurin -0.157 | alvocidib 0.284 | Tubastatin A 0.114 | [1] 0.004 | defactinib 0.285 | rucaparib 0.606 | [2] 0.249 | encorafenib 0.278 | [3] -0.063

FYCO1 isoform 4 (UniProt Q9BQS8)
inactive: saracatinib 0.041 | sotrastaurin -0.019 | alvocidib -0.112 | Tubastatin A 0.04 | [1] -0.034 | defactinib -0.068 | rucaparib 0.077 | [2] -0.185 | encorafenib 0.005 | [3] -0.01

GANAB isoform 2 (UniProt Q14697)
inactive: saracatinib -0.054 | sotrastaurin -0.062 | alvocidib 0.019 | Tubastatin A 0.029 | [1] -0.014 | defactinib 0.048 | rucaparib 0.069 | [2] 0.029 | encorafenib 0.053 | [3] -0.009

GADD45GIP1 (UniProt Q8TAE8)
inactive: saracatinib -0.076 | sotrastaurin 0.025 | alvocidib 0.105 | Tubastatin A 0.054 | [1] 0.01 | defactinib 0.062 | rucaparib 0.022 | [2] 0.035 | encorafenib 0.012 | [3] 0.014

GAB1 isoform 2 (UniProt Q13480)
inactive: saracatinib 0.06 | sotrastaurin 0.032 | alvocidib -0.027 | Tubastatin A -0.064 | [1] -0.053 | defactinib -0.076 | rucaparib 0.087 | [2] -0.011 | encorafenib -0.074 | [3] 0.131

GGCT (UniProt O75223)
inactive: saracatinib -0.006 | sotrastaurin 0.027 | alvocidib -0.057 | Tubastatin A -0.028 | [1] -0.024 | defactinib 0.001 | rucaparib -0.016 | [2] 0.024 | encorafenib -0.051 | [3] -0.001

FTH1 (UniProt P02794)
inactive: saracatinib -0.195 | sotrastaurin -0.041 | alvocidib 0.064 | Tubastatin A -0.072 | [1] -0.007 | defactinib 0 | rucaparib -0.038 | [2] -0.094 | encorafenib 0.013 | [3] 0.053

G6PD isoform 2 (UniProt P11413)
inactive: saracatinib 0.001 | sotrastaurin 0.003 | alvocidib -0.101 | Tubastatin A -0.025 | [1] 0.001 | defactinib -0.009 | rucaparib -0.051 | [2] 0.021 | encorafenib -0.016 | [3] -0.013

FUNDC2 (UniProt Q9BWH2)
inactive: saracatinib -0.006 | sotrastaurin 0.088 | alvocidib 0.019 | Tubastatin A -0.023 | [1] 0.028 | defactinib 0.01 | rucaparib -0.031 | [2] -0.063 | encorafenib -0.017 | [3] -0.021
